Some of the results follow. Repeats are few or missing, and single values can be far off.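 Cells were imaged in 1,536-well plates, and nuclei stained with an antibody against cleaved PARP were counted against all DNA-stained nuclei to give the apoptosis fraction. Screening doses were chosen to leave most cells alive, and resting and induced cleaved-PARP levels differ strongly between cell lines.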
Tested on: UACC62
Assay: cleaved PARP positive nuclei fraction relative to DMSO control; melanoma cells; higher = more apoptosis
Settings: library dose: low library concentration; 72 h

Row | SMILES | cleaved PARP positive nuclei fraction [%]
1 | Cn1nnc2c(C(N)=O)ncn2c1=O [temozolomide] + O=C(Oc1ccc([N+](=O)[O-])cc1)N1CCC(C(O)(c2ccc3c(c2)OCO3)c2ccc3c(c2)OCO3)CC1 [JZL184] (first compound 2 µM, partner dose 1 µM) | 187
2 | C[C@]1(c2nc3c(C(N)=O)cccc3[nH]2)CCCN1 [Veliparib] + O=C(Oc1ccc([N+](=O)[O-])cc1)N1CCC(C(O)(c2ccc3c(c2)OCO3)c2ccc3c(c2)OCO3)CC1 [JZL184] (first compound 1.4 µM, partner dose 1 µM) | 119
3 | Nc1cccc2c1CN(C1CCC(=O)NC1=O)C2=O (centres undefined) [lenalidomide] + O=C(Oc1ccc([N+](=O)[O-])cc1)N1CCC(C(O)(c2ccc3c(c2)OCO3)c2ccc3c(c2)OCO3)CC1 [JZL184] (first compound 1 µM, partner dose 1 µM) | 121
4 | C[C@]12O[C@H](C[C@]1(O)CO)n1c3ccccc3c3c4c(c5c6ccccc6n2c5c31)CNC4=O [Lestaurtinib] + COc1ccc(COc2ccc(Cc3cnc(N)nc3N)cc2OC)cc1 [GW2580] (first compound 0.004 µM, partner dose 1 µM) | 158
5 | Cc1nc(Nc2ncc(C(=O)Nc3c(C)cccc3Cl)s2)cc(N2CCN(CCO)CC2)n1 [dasatanib] + C/C(O)=C(\C#N)C(=O)Nc1cc(Br)ccc1Br [LFM-A13] (first compound 0.004 µM, partner dose 2 µM) | 46
6 | Cc1cc(SCc2sc(-c3ccc(C(F)(F)F)c(F)c3)nc2C)ccc1OCC(=O)O + Cc1cc([N+](=O)[O-])ccc1NS(=O)(=O)c1cc(Cl)ccc1Cl [FH535] (first compound 2 µM, partner dose 1 µM) | 37.7
7 | O=S(=O)(c1ccccc1)N(CC(F)(F)F)c1ccc(C(O)(C(F)(F)F)C(F)(F)F)cc1 + C/C(O)=C(\C#N)C(=O)Nc1cc(Br)ccc1Br [LFM-A13] (first compound 1.4 µM, partner dose 2 µM) | 122
8 | O=C(Oc1ccc([N+](=O)[O-])cc1)N1CCC(C(O)(c2ccc3c(c2)OCO3)c2ccc3c(c2)OCO3)CC1 + CCCCCCCCCCCC1=C(O)C(=O)C=C(O)C1=O [Embelin] (first compound 1 µM, partner dose 1.2 µM) | 105
9 | Cn1cncc1[C@@](N)(c1ccc(Cl)cc1)c1ccc2c(c1)c(-c1cccc(Cl)c1)cc(=O)n2C [tipifarnib] + Cc1cc(SCc2sc(-c3ccc(C(F)(F)F)c(F)c3)nc2C)ccc1OCC(=O)O [GW0742] (first compound 0.01 µM, partner dose 2 µM) | 596
10 | O=C1NC(=O)/C(=C/c2ccc(-c3ccc(F)cc3O)o2)S1 + O=C(Oc1ccc([N+](=O)[O-])cc1)N1CCC(C(O)(c2ccc3c(c2)OCO3)c2ccc3c(c2)OCO3)CC1 [JZL184] (first compound 1 µM, partner dose 1 µM) | 141
11 | CN(C)S(=O)(=O)c1ccc2c(c1)/C(=C/c1cc3c([nH]1)CCCC3)C(=O)N2 + Cc1cc(SCc2sc(-c3ccc(C(F)(F)F)c(F)c3)nc2C)ccc1OCC(=O)O [GW0742] (first compound 0.4 µM, partner dose 2 µM) | 83.8
12 | O=C(Oc1ccc([N+](=O)[O-])cc1)N1CCC(C(O)(c2ccc3c(c2)OCO3)c2ccc3c(c2)OCO3)CC1 + Cn1cc(/C=C2\C(=O)Nc3cccnc32)c2ccccc21 [GW441756] (first compound 1 µM, partner dose 0.4 µM) | 38
13 | CO[C@H]1C[C@@H]2CC[C@@H](C)[C@@](O)(O2)C(=O)C(=O)N2CCCC[C@H]2C(=O)O[C@H]([C@H](C)C[C@@H]2CC[C@@H](OCCO)[C@H](OC)C2)CC(=O)[C@H](C)/C=C(\C)[C@@H](O)[C@@H](OC)C(=O)[C@H](C)C[C@H](C)/C=C/C=C/C=C/1C [everolimus] + Cc1cc(SCc2sc(-c3ccc(C(F)(F)F)c(F)c3)nc2C)ccc1OCC(=O)O [GW0742] (first compound 0.02 µM, partner dose 2 µM) | 121
14 | C[C@]12O[C@H](C[C@]1(O)CO)n1c3ccccc3c3c4c(c5c6ccccc6n2c5c31)CNC4=O [Lestaurtinib] + CO[C@@H]1[C@H](N(C)C(=O)c2ccccc2)C[C@H]2O[C@]1(C)n1c3ccccc3c3c4c(c5c6ccccc6n2c5c31)C(=O)NC4 [Midostaurin] (first compound 0.004 µM, partner dose 0.08 µM) | 97.2

— the supplement of paper PMC4604168 (melanoma cell lines)
